Results from PMC5048338, “Discovery of 4,6-disubstituted pyrimidines as potent inhibitors of the heat shock factor 1 (HSF1) stress pathway and CDK9” (Medchemcomm, 2016).

Test system: HSF1-mediated HSP72 induction
Experiment: Cell-based ELISA (Cellisa) for HSP72 expression
Conditions: Homo sapiens, U2OS, read-out: HSF1 IC50 (cell-ELISA, HSP72 induction inhibition)

Compound: CCc1cnn2c(NCc3ccc[n+]([O-])c3)cc(N3CCCC[C@H]3CCO)nc12 [Dinaciclib, dinaciclib]
- IC50: 7 nM
